Paper PMC7956269
No constants are given. Whether binding was seen depends on the method and setting. Binding seen in cells or lysates may run through a third protein. A yes stands for co-enrichment or nearness to the bait. Other partners may have been found.

B1: Usp22 (protein, UniProt Q9UPT9 1-525)
chain: MVSRPEPEGEAMDAELAVAPPGCSHLGSFKVDNWKQNLRAIYQCFVWSGTAEARKRKAKSCICHVCGVHLNRLHSCLYCVFFGCFTKKHIHEHAKAKRHNLAIDLMYGGIYCFLCQDYIYDKDMEIIAKEEQRKAWKMQGVGEKFSTWEPTKRELELLKHNPKRRKITSNCTIGLRGLINLGNTCFMNCIVQALTHTPLLRDFFLSDRHRCEMQSPSSCLVCEMSSLFQEFYSGHRSPHIPYKLLHLVWTHARHLAGYEQQDAHEFLIAALDVLHRHCKGDDNGKKANNPNHCNCIIDQIFTGGLQSDVTCQVCHGVSTTIDPFWDISLDLPGSSTPFWPLSPGSEGNVVNGESHVSGTTTLTDCLRRFTRPEHLGSSAKIKCSGCHSYQESTKQLTMKKLPIVACFHLKRFEHSAKLRRKITTYVSFPLELDMTPFMASSKESRMNGQYQQPTDSLNNDNKYSLFAVVNHQGTLESGHYTSFIRQHKDQWFKCDDAIITKASIKDVLDSEGYLLFYHKQFLEYE
B2: Dis3 (protein, UniProt Q9Y2L1 1-958)
chain: MLKSKTFLKKTRAGGVMKIVREHYLRDDIGCGAPGCAACGGAHEGPALEPQPQDPASSVCPQPHYLLPDTNVLLHQIDVLEDPAIRNVIVLQTVLQEVRNRSAPVYKRIRDVTNNQEKHFYTFTNEHHRETYVEQEQGENANDRNDRAIRVAAKWYNEHLKKMSADNQLQVIFITNDRRNKEKAIEEGIPAFTCEEYVKSLTANPELIDRLACLSEEGNEIESGKIIFSEHLPLSKLQQGIKSGTYLQGTFRASRENYLEATVWIHGDNEENKEIILQGLKHLNRAVHEDIVAVELLPKSQWVAPSSVVLHDEGQNEEDVEKEEETERMLKTAVSEKMLKPTGRVVGIIKRNWRPYCGMLSKSDIKESRRHLFTPADKRIPRIRIETRQASTLEGRRIIVAIDGWPRNSRYPNGHFVRNLGDVGEKETETEVLLLEHDVPHQPFSQAVLSFLPKMPWSITEKDMKNREDLRHLCICSVDPPGCTDIDDALHCRELENGNLEVGVHIADVSHFIRPGNALDQESARRGTTVYLCEKRIDMVPELLSSNLCSLKCDVDRLAFSCIWEMNHNAEILKTKFTKSVINSKASLTYAEAQLRIDSANMNDDITTSLRGLNKLAKILKKRRIEKGALTLSSPEVRFHMDSETHDPIDLQTKELRETNSMVEEFMLLANISVAKKIHEEFSEHALLRKHPAPPPSNYEILVKAARSRNLEIKTDTAKSLAESLDQAESPTFPYLNTLLRILATRCMMQAVYFCSGMDNDFHHYGLASPIYTHFTSPIRRYADVIVHRLLAVAIGADCTYPELTDKHKLADICKNLNFRHKMAQYAQRASVAFHTQLFFKSKGIVSEEAYILFVRKNAIVVLIPKYGLEGTVFFEEKDKPNPQLIYDDEIPSLKIEDTVFHVFDKVKVKIMLDSSNLQHQKIRMSLVEPQIPGISIPTDTSNMDLNGPKKKKMKLGK
B3: Mybbp1a (protein, UniProt Q9BQG0 1-1328)
chain: MESRDPAQPMSPGEATQSGARPADRYGLLKHSREFLDFFWDIAKPEQETRLAATEKLLEYLRGRPKGSEMKYALKRLITGLGVGRETARPCYSLALAQLLQSFEDLPLCSILQQIQEKYDLHQVKKAMLRPALFANLFGVLALFQSGRLVKDQEALMKSVKLLQALAQYQNHLQEQPRKALVDILSEVSKATLQEILPEVLKADLNIILSSPEQLELFLLAQQKVPSKLKKLVGSVNLFSDENVPRLVNVLKMAASSVKKDRKLPAIALDLLRLALKEDKFPRFWKEVVEQGLLKMQFWPASYLCFRLLGAALPLLTKEQLHLVMQGDVIRHYGEHVCTAKLPKQFKFAPEMDDYVGTFLEGCQDDPERQLAVLVAFSSVTNQGLPVTPTFWRVVRFLSPPALQGYVAWLRAMFLQPDLDSLVDFSTNNQKKAQDSSLHMPERAVFRLRKWIIFRLVSIVDSLHLEMEEALTEQVARFCLFHSFFVTKKPTSQIPETKHPFSFPLENQAREAVSSAFFSLLQTLSTQFKQAPGQTQGGQPWTYHLVQFADLLLNHSHNVTTVTPFTAQQRQAWDRMLQTLKELEAHSAEARAAAFQHLLLLVGIHLLKSPAESCDLLGDIQTCIRKSLGEKPRRSRTKTIDPQEPPWVEVLVEILLALLAQPSHLMRQVARSVFGHICSHLTPRALQLILDVLNPETSEDENDRVVVTDDSDERRLKGAEDKSEEGEDNRSSESEEESEGEESEEEERDGDVDQGFREQLMTVLQAGKALGGEDSENEEELGDEAMMALDQSLASLFAEQKLRIQARRDEKNKLQKEKALRRDFQIRVLDLVEVLVTKQPENALVLELLEPLLSIIRRSLRSSSSKQEQDLLHKTARIFTHHLCRARRYCHDLGERAGALHAQVERLVQQAGRQPDSPTALYHFNASLYLLRVLKGNTAEGCVHETQEKQKAGTDPSHMPTGPQAASCLDLNLVTRVYSTALSSFLTKRNSPLTVPMFLSLFSRHPVLCQSLLPILVQHITGPVRPRHQACLLLQKTLSMREVRSCFEDPEWKQLMGQVLAKVTENLRVLGEAQTKAQHQQALSSLELLNVLFRTCKHEKLTLDLTVLLGVLQGQQQSLQQGAHSTGSSRLHDLYWQAMKTLGVQRPKLEKKDAKEIPSATQSPISKKRKKKGFLPETKKRKKRKSEDGTPAEDGTPAATGGSQPPSMGRKKRNRTKAKVPAQANGTPTTKSPAPGAPTRSPSTPAKSPKLQKKNQKPSQVNGAPGSPTEPAGQKQHQKALPKKGVLGKSPLSALARKKARLSLVIRSPSLLQSGAKKKAQVRKAGKP
B4: Timmdc1 (protein, UniProt Q9NPL8 1-285)
chain: MEVPPPAPRSFLCRALCLFPRVFAAEAVTADSEVLEERQKRLPYVPEPYYPESGWDRLRELFGKDEQQRISKDLANICKTAATAGIIGWVYGGIPAFIHAKQQYIEQSQAEIYHNRFDAVQSAHRAATRGFIRYGWRWGWRTAVFVTIFNTVNTSLNVYRNKDALSHFVIAGAVTGSLFRINVGLRGLVAGGIIGALLGTPVGGLLMAFQKYSGETVQERKQKDRKALHELKLEEWKGRLQVTEHLPEKIESSLQEDEPENDAKKIEALLNLPRNPSVIDKQDKD
B5: Ptplad1 (protein, UniProt Q9P035 1-362)
chain: MENQVLTPHVYWAQRHRELYLRVELSDVQNPAISITENVLHFKAQGHGAKGDNVYEFHLEFLDLVKPEPVYKLTQRQVNITVQKKVSQWWERLTKQEKRPLFLAPDFDRWLDESDAEMELRAKEEERLNKLRLESEGSPETLTNLRKGYLFMYNLVQFLGFSWIFVNLTVRFCILGKESFYDTFHTVADMMYFCQMLAVVETINAAIGVTTSPVLPSLIQLLGRNFILFIIFGTMEEMQNKAVVFFVFYLWSAIEIFRYSFYMLTCIDMDWKVLTWLRYTLWIPLYPLGCLAEAVSVIQSIPIFNETGRFSFTLPYPVKIKVRFSFFLQIYLIMIFLGLYINFRHLYKQRRRRYGQKKKKIH
B6: Hmgxb4 (protein, UniProt Q9UGU5 1-601)
chain: MAYDDSVKKEDCFDGDHTFEDIGLAAGRSQREKKRSYKDFLREEEEIAAQVRNSSKKKLKDSELYFLGTDTHKKKRKHSSDDYYYGDISSLESSQKKKKKSSPQSTDTAMDLLKAITSPLAAGSKPSKKTGEKSSGSSSHSESKKEHHRKKVSGSSGELPLEDGGSHKSKKMKPLYVNTETLTLREPDGLKMKLILSPKEKGSSSVDEESFQYPSQQATVKKSSKKSARDEQGALLLGHELQSFLKTARKKHKSSSDAHSSPGPEGCGSDASQFAESHSANLDLSGLEPILVESDSSSGGELEAGELVIDDSYREIKKKKKSKKSKKKKDKEKHKEKRHSKSKRSLGLSAVPVGEVTVTSGPPPSIPYAGAAAPPLPLPGLHTDGHSEKKKKKEEKDKERERGEKPKKKNMSAYQVFCKEYRVTIVADHPGIDFGELSKKLAEVWKQLPEKDKLIWKQKAQYLQHKQNKAEATTVKRKASSSEGSMKVKASSVGVLSPQKKSPPTTMLLPASPAKAPETEPIDVAAHLQLLGESLSLIGHRLQETEGMVAVSGSLSVLLDSIICALGPLACLTTQLPELNGCPKQVLSNTLDNIAYIMPGL
B7: Gnl3 (protein, UniProt Q9BVP2 1-549)
chain: MKRPKLKKASKRMTCHKRYKIQKKVREHHRKLRKEAKKRGHKKPRKDPGVPNSAPFKEALLREAELRKQRLEELKQQQKLDRQKELEKKRKLETNPDIKPSNVEPMEKEFGLCKTENKAKSGKQNSKKLYCQELKKVIEASDVVLEVLDARDPLGCRCPQVEEAIVQSGQKKLVLILNKSDLVPKENLESWLNYLKKELPTVVFRASTKPKDKGKITKRVKAKKNAAPFRSEVCFGKEGLWKLLGGFQETCSKAIRVGVIGFPNVGKSSIINSLKQEQMCNVGVSMGLTRSMQVVPLDKQITIIDSPSFIVSPLNSSSALALRSPASIEVVKPMEAASAILSQADARQVVLKYTVPGYRNSLEFFTVLAQRRGMHQKGGIPNVEGAAKLLWSEWTGASLAYYCHPPTSWTPPPYFNESIVVDMKSGFNLEELEKNNAQSIRAIKGPHLANSILFQSSGLTNGIIEEKDIHEELPKRKERKQEEREDDKDSDQETVDEEVDENSSGMFAAEETGEALSEETTAGEQSTRSFILDKIIEEDDAYDFSTDYV
B8: Sart1 (protein, UniProt O43290 1-800)
chain: MGSSKKHRGEKEAAGTTAAAGTGGATEQPPRHREHKKHKHRSGGSGGSGGERRKRSRERGGERGSGRRGAEAEARSSTHGRERSQAEPSERRVKREKRDDGYEAAASSKTSSGDASSLSIEETNKLRAKLGLKPLEVNAIKKEAGTKEEPVTADVINPMALRQREELREKLAAAKEKRLLNQKLGKIKTLGEDDPWLDDTAAWIERSRQLQKEKDLAEKRAKLLEEMDQEFGVSTLVEEEFGQRRQDLYSARDLQGLTVEHAIDSFREGETMILTLKDKGVLQEEEDVLVNVNLVDKERAEKNVELRKKKPDYLPYAEDESVDDLAQQKPRSILSKYDEELEGERPHSFRLEQGGTADGLRERELEEIRAKLRLQAQSLSTVGPRLASEYLTPEEMVTFKKTKRRVKKIRKKEKEVVVRADDLLPLGDQTQDGDFGSRLRGRGRRRVSEVEEEKEPVPQPLPSDDTRVENMDISDEEEGGAPPPGSPQVLEEDEAELELQKQLEKGRRLRQLQQLQQLRDSGEKVVEIVKKLESRQRGWEEDEDPERKGAIVFNATSEFCRTLGEIPTYGLAGNREEQEELMDFERDEERSANGGSESDGEENIGWSTVNLDEEKQQQDFSASSTTILDEEPIVNRGLAAALLLCQNKGLLETTVQKVARVKAPNKSLPSAVYCIEDKMAIDDKYSRREEYRGFTQDFKEKDGYKPDVKIEYVDETGRKLTPKEAFRQLSHRFHGKGSGKMKTERRMKKLDEEALLKKMSSSDTPLGTVALLQEKQKAQKTPYIVLSGSGKSMNANTITK

Each binder was assayed against Biotin-FOXC1 (mouse) (UniProt Q61572) (assay: affinity purification with mass spectrometry; streptavidin-agarose precipitation of biotinylated FOXC1 from nuclear extract of stable HEK293T cells (293T-Biotin-FOXC1); IP350 buffer (350 mM NaCl, 20 mM Tris-HCl pH 7.5, 0.5% NP40, 1 mM EDTA, 10% glycerin); SDS-PAGE, LC-ESI-MS/MS; proteins of the 293T-Biotin control deducted).
With B1 the binding was “binds”.
For B2, the binding was “binds”.
With B3 the binding was “binds”.
B4 was tested, and the binding was “binds”.
With B5 the binding was “binds”.
In the case of B6, the binding is reported as “binds”.
In the case of B7, the binding is reported as “binds”.
B8 was tested, and the binding was “binds”.
